From PubChem BioAssay record AID912 (NCATS, 2007).

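A cell-based FRET test of anthrax lethal toxin entry, tracked through the 460 nm emission signal; the cell line is not named here. Each compound was tested as a concentration series from about 0.0005 to 40 µM. The number is the fitted AC50 of the 460 nm signal alone; lower values mean a more potent effect. A falling signal goes with compounds filed as inhibitors or cytotoxic, a rising one with activators or fluorescent compounds (inferred from the filed classes).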

Values are in µM. Common to all entries: measured here: 460 nm channel. This is a side read-out of the assay, for part of the compounds, not drawn at random. Potencies fitted to partial, single-point or poorly fitting curves are rough. The first word of each remark tells which way the curve ran; it can be opposite to the aim of the assay.

| # | SMILES | AC50 (µM) | curve as filed |
|---|---|---|---|
| 1 | `Cc1ccc2c(CC(=O)Nc3nc(C)cs3)coc2c1` | 5.012 | rising, single point |
| 2 | `CC(C)(C)c1ccc(S(=O)(=O)/C=C\C#N)cc1` | 6.31 | falling, full curve |
| 3 | `CCc1cccc2c(C#N)cn(CCOc3ccccc3OC)c12` | 5.012 | rising, single point |
| 4 | `CC1=C(C(=O)OC(C)C)C(c2cccnc2)C2=C(CCCC2=O)N1` (stereo not drawn) | 10 | rising, partial curve |
| 5 | `O=C(c1cc2nc(-c3ccco3)cc(C(F)(F)F)n2n1)N1CCN(c2ccccc2)CC1` | 25.12 | falling, single point |
| 6 | `O=C1C(c2ccc(F)cc2)N(C2CCCCC2)C(=O)CN1C1CCCC1` (stereo not drawn) | 0.631 | rising, full curve, poor fit |
| 7 | `O=c1c2[nH]c3ccc(Cl)cc3c2ncn1Cc1ccccn1` | 0.01 | rising, full curve, poor fit |
| 8 | `O=C(CSc1nnnn1-c1ccccc1Cl)Nc1ccc2c(c1)OCCO2` | 12.59 | falling, partial curve |
| 9 | `CCN1CCc2c(sc3c2c(NCc2ccco2)nc2nnnn23)C1` | 6.31 | rising, single point |
| 10 | `CCCc1nc(SCC(=O)N2CCC(Cc3ccccc3)CC2)c2c(=O)n(C)c(=O)n(C)c2n1` | 10 | falling, partial curve |
| 11 | `N=C1Sc2ccccc2C2=NCCCN12` | 0.01995 | falling, full curve |
| 12 | `COc1cc(CN2CCCCC2)cc2cc(C(=O)O)c(=O)oc12` | 5.012 | rising, partial curve |
| 13 | `Cc1ccc(-c2cc(-c3ccc4c(c3)OCO4)c(C#N)c(N)n2)o1` | 1.995 | falling, full curve |
| 14 | `OC[C@@H]1O[C@@H](n2cnc3c(NCCc4ccccc4)ncnc32)[C@@H](O)[C@H]1O` | 5.012 | rising, full curve, poor fit |
| 15 | `CN(C/C=C\c1ccccc1)Cc1cccc2ccccc12` | 10 | falling, partial curve |
| 16 | `Nc1cc(OC(=O)c2ccccc2Br)nn1S(=O)(=O)c1ccccc1` | 12.59 | falling, partial curve |
| 17 | `Cn1cccc1C(=O)N1CCC[C@@]2(CCN(Cc3ccccc3)C2)C1` | 3.981 | rising, single point |
| 18 | `COc1cccc(C2CC(=O)N3CN(c4ccccc4F)CSC3=C2C#N)c1` (stereo not drawn) | 31.62 | falling, single point |
| 19 | `Cc1cc(C)n(C(=O)CNC(=O)COc2ccccc2)n1` | 0.01995 | falling, full curve |
| 20 | `COc1cc(NC(=O)c2ccc(Br)o2)ccc1NC(=O)C(C)C` | 5.012 | rising, single point |
| 21 | `O=C1c2ccccc2-c2ccc(N(Cc3ccc(Br)cc3)Cc3ccc(Br)cc3)cc21` | 3.981 | falling, single point |
| 22 | `CCCCn1nc(CC(=O)O)c2ccccc2c1=O` | 1.995 | falling, partial curve, poor fit |
| 23 | `N#Cc1cccc(-c2nc3cnc(Nc4ccccc4)nc3n(C[C@H]3CCCO3)c2=O)c1` | 10 | rising, partial curve |
| 24 | `O=C(Oc1ccccc1)c1ccccc1O` | 31.62 | rising, single point |
| 25 | `COc1ccc(C2CC(c3ccccc3)Nc3nc(NC(=O)c4cccs4)nn32)cc1` (stereo not drawn) | 0.1 | rising, full curve, poor fit |
| 26 | `CCOC(=O)C(NC(=O)Nc1ccc(F)cc1)(OCC)C(F)(F)F` (stereo not drawn) | 0.631 | falling, full curve |
| 27 | `Cn1c(SCC(=O)N2c3ccccc3Sc3ccc(Cl)cc32)nnc1-c1ccco1` | 10 | rising, single point |
| 28 | `O=C(NCCCn1ccnc1)c1cc2c(s1)CCCCC2` | 3.981 | falling, full curve, poor fit |
| 29 | `CCCN1C2=C(C(=O)CCC2)C(c2ccc(O)c(Br)c2)C2=C1CCCC2=O` | 5.012 | rising, partial curve |
| 30 | `CC(=O)N1CCc2cc(S(=O)(=O)NC(CC(C)C)C(=O)N3CCn4c3nc3ccccc34)ccc21` (stereo not drawn) | 2.512 | rising, single point |
| 31 | `COc1cccc(-n2c(C)nnc2SCC(=O)Nc2ccccc2N2CCOCC2)c1` | 0.007943 | falling, full curve, poor fit |
| 32 | `Cc1noc(C)c1C(=O)NCCCN1CCCC1=O` | 2.512 | rising, single point |
| 33 | `O=C(Cn1cc2c(n1)CCCC2)Nc1cc(-c2cccc(Cl)c2)no1` | 12.59 | falling, partial curve |
| 34 | `N#Cc1nc(-c2ccc(OCc3ccccc3)cc2)oc1NCCCN1CCOCC1` | 10 | falling, partial curve |
| 35 | `COc1cccc(-n2nnc3c(=O)n(Cc4ccc(Br)cc4)cnc32)c1` | 12.59 | rising, partial curve |
| 36 | `COc1ccc(N2C(=O)C(Cl)=C(N3CCN(Cc4ccccc4)CC3)C2=O)cc1` | 3.162 | falling, partial curve |
| 37 | `CCCN1CCN(C(=O)C2CCN(S(=O)(=O)c3ccc4c(c3)oc(=O)n4C)CC2)CC1` | 12.59 | rising, single point |
| 38 | `CCC1CCCCN1C(=O)CSc1nc(N)c(NC(=O)c2ccc(OC)c(OC)c2)c(=O)[nH]1` (stereo not drawn) | 31.62 | rising, single point |
| 39 | `CCOC(=O)c1sc(=S)n(CC)c1NC(=O)C1CC1` | 0.02512 | falling, full curve, poor fit |
| 40 | `COc1ccc(-n2c(SCC#N)nnc2-c2ccc(NS(=O)(=O)c3ccc(C)cc3)cc2)cc1` | 1 | rising, full curve, poor fit |
| 41 | `CC(=O)Nc1ccc(S(=O)(=O)N2CCCC2C(=O)O)cc1` (stereo not drawn) | 3.981 | rising, single point |
| 42 | `O=C(Nc1ccc2c(c1)OCO2)c1ccc(Br)s1` | 12.59 | falling, partial curve |
| 43 | `COc1ccc(N(CC(=O)Nc2cc(Cl)ccc2OC)S(=O)(=O)c2c(C)noc2C)cc1` | 31.62 | falling, single point |
| 44 | `CSc1nc(C)cc(OCNC(=O)c2cccs2)n1` | 0.7943 | falling, full curve, poor fit |
| 45 | `CCOC(=O)N1CCN(C(=O)c2cc(S(=O)(=O)N3CCCC3)cn2C)CC1` | 3.162 | falling, full curve, poor fit |
| 46 | `CC(C)N(Cc1nc(-c2ccccc2)no1)S(=O)(=O)c1ccccc1` | 12.59 | falling, partial curve |

For reference, 3 entries once more:

{"smiles": "CCOC(=O)c1sc(=S)n(CC)c1NC(=O)C1CC1", "AC50 (µM)": "0.02512", "curve as filed": "falling, full curve, poor fit"}
{"smiles": "Cc1cc(C)n(C(=O)CNC(=O)COc2ccccc2)n1", "AC50 (µM)": "0.01995", "curve as filed": "falling, full curve"}
{"smiles": "O=C(NCCCn1ccnc1)c1cc2c(s1)CCCCC2", "AC50 (µM)": "3.981", "curve as filed": "falling, full curve, poor fit"}